4 molecules from paper PMC10469627, “Molecular basis of the glycosomal targeting of PEX11 and its mislocalization to mitochondrion in trypanosomes” (Frontiers in Cell and Developmental Biology, 2023) can be followed below.

In assay [1] the target is T1, GAL4 BD-TbPEX11_(1-218aa) (Trypanosoma brucei) (UniProt O60944).
T1 sequence: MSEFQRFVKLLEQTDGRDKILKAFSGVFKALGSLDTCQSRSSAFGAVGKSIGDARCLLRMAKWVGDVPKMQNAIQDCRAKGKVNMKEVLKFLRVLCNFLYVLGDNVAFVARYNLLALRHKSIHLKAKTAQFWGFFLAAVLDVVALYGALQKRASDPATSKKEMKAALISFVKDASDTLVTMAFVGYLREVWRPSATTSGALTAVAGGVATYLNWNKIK
The experiment in a line: two-hybrid; GAL4 BD-TbPEX11 constructs (pPC97) and GAL4 AD-TbPEX19 (pPC86) co-transformed in WT PCY2; colony-lift filter β-galactosidase assay and liquid ONPG assay, three replicates.

Assay [2] addresses T2, GAL4 BD-TbPEX11_(1-76aa) (Trypanosoma brucei) (UniProt O60944).
T2 sequence: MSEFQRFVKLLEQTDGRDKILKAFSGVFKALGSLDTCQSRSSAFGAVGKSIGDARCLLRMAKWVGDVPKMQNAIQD
Described as above.

Assay [3] has as its target T3, GAL4 BD-TbPEX11_(1-89aa) (Trypanosoma brucei) (UniProt O60944).
T3 sequence: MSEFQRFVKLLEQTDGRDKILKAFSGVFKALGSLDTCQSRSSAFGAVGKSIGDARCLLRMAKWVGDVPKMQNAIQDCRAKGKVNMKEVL
The assay is described as above.

Assay [4] has as its target T4, GAL4 BD-TbPEX11_(90-218aa) (Trypanosoma brucei) (UniProt O60944).
T4 sequence: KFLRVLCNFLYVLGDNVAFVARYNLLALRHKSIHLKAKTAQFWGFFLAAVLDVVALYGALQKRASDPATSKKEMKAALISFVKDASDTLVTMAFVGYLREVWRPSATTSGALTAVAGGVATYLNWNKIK
Described as above.

The target in assay [5] is T5, TbPEX11 array peptides of BS1 (aa 13-35) (Trypanosoma brucei).
T5 sequence (peptide): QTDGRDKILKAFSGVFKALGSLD
The experiment in a line: peptide or protein array; 15-mer peptides (2 aa shift) on a cellulose membrane; probed with 1 µM GST fusion or GST in TBS + 3% BSA + 0.05% Tween-20, 1 h at 4°C; detected with anti-GST antibody and chemiluminescence; at least three consecutive spots counted as a potential site; both purified.

In assay [6] the target is T6, TbPEX11 array peptides of BS2 (aa 77-99) (Trypanosoma brucei).
T6 sequence (peptide): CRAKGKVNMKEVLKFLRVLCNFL
Described as above.

Assay [7] addresses T7, TbPEX11 array peptides of BS3 (aa 139-159) (Trypanosoma brucei).
T7 sequence (peptide): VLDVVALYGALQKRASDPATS
Described as above.

Assay [8] deals with GST-TbPEX19 (Trypanosoma brucei). Kind of assay: pull-down; 200 µg GST-TbPEX19 or GST on Glutathione Agarose 4B beads; 25 µg C-terminally His6-tagged peptide, 2 h at 4°C; PBS washes; eluted with 10 mM reduced glutathione; Coomassie staining and anti-His6 blot; both purified.
The target is the same in assay [9]. Kind of assay: AlphaScreen or HTRF; 30 nM GST-TbPEX19 and 300 nM His6-tagged TbPEX11 peptide in PBS pH 7.4 with 0.5% BSA, room temperature; Nickel-chelate acceptor beads and Glutathione donor beads; GST as negative control; both purified. Background: In Alpha technology, singlet oxygen from a donor bead excites a nearby acceptor bead.

No constants are given. Whether binding was seen depends on the method and setting. For some of these results: A result given as binding can be weak or reduced; the word gives no strength. For some of these results: Where a sequence is shown, tags or fusion partners need not be part of it.

As to “GAL4 AD-TbPEX19_(1-285aa) (Trypanosoma brucei)”, the binding entry is “binds weakly” in [1], “binds” in assay [2], “binds” in [3] and “no binding” in assay [4].

Turning to GST-TbPEX19 (Trypanosoma brucei), the binding result in assay [5], in assay [6] and in assay [7] was “binds” each time.

For the molecule VLDVVALYGALQKRASDPATSGS [TbPEX11 BS3 peptide, C-terminally His6-tagged (…-GS-His6)], the binding entry in [8] was “no binding (tested: 25 µg of peptide)”.

In the case of QTDGRDKILKAFSGVFKALGSLDGS [TbPEX11 BS1 peptide, C-terminally His6-tagged (…-GS-His6)], the figures for the binding entry in assay [9] and in assay [8] were “no binding (tested: 300 nM)” and “no binding (tested: 25 µg of peptide)”, respectively.
